The source of these data is paper PMC8840930.

Sequences of proteins named here, by UniProt entry; tags and fusion partners are left off. A change or cut given only in a name is not applied to a line headed by its entry.
UniProt Q9Y2R2: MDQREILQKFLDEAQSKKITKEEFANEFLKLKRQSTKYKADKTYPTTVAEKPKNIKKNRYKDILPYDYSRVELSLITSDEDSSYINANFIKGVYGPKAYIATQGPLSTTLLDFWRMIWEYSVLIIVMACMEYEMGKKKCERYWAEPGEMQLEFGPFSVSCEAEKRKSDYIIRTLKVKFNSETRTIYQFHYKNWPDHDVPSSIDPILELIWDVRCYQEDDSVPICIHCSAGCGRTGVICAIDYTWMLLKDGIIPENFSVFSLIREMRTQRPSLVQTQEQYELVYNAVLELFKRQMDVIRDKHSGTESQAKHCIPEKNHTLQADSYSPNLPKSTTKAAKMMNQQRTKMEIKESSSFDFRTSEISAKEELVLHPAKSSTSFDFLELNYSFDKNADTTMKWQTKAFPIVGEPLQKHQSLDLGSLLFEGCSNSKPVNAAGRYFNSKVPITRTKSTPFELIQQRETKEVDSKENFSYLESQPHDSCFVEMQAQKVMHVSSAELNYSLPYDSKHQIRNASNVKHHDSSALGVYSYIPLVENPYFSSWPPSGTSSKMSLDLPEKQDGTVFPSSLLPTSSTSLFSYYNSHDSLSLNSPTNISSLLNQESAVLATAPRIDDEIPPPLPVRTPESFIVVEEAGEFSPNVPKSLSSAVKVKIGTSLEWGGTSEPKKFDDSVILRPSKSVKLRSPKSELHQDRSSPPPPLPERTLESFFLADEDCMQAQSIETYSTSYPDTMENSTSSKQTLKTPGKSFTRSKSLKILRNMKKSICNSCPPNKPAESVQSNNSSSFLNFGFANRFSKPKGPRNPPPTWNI
UniProt O43586: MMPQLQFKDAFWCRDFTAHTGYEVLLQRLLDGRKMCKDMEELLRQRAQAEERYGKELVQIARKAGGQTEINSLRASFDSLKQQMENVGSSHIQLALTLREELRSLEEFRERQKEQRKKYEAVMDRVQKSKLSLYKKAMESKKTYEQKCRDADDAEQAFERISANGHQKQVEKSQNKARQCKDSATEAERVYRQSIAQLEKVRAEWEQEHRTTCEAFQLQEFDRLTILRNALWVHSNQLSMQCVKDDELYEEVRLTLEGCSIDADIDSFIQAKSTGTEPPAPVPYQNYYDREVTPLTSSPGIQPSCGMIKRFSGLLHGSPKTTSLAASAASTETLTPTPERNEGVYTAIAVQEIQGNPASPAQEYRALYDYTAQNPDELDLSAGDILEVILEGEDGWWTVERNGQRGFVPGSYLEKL

These are yes or no findings as the source states them, for the method shown. Binding seen in cells or lysates may run through a third protein. Binding calls can cover weak binding; strength is not graded here.

The experiment concerns the target 3xmyc-LYP (human) (UniProt Q9Y2R2). Description: co-IP; HEK293 cells co-transfected with PSTPIP1-V5 (wild type or mutant) and 3xmyc-LYP; TNE lysis buffer with 1% NP-40; immunoprecipitation with myc antibody, immunoblot for the V5 epitope. A general note: In western blotting, separated proteins are transferred to a membrane and probed.

For the substance PSTPIP1-V5 D279H (from UniProt O43586), the binding entry is listed as “binds”.
